{"source": "patent US20170129929A1", "about": "(REGENTS OF THE UNIVERSITY OF COLORADO A BODY CORPORATE, published 2017)", "proteins": {"B1": {"name": "LEDGF1-326 (amino acids 1-326 of lens epithelium derived growth factor), as expressed from pLEDGF1-326 (pET-28a(+)) in Example 1 (other)", "chain": "MTRDFKPGDLIFAKMKGYPHWPARVDEVPDGAVKPPTNKLPIFFFGTHETAFLGPKDIFPYSENKEKYGKPNKRKGFNEGLWEIDNNPKVKFSSQQAATKQSNASSDVEVEEKETSVSKEDTDHEEKASNEDVTKAVDITTPKAARRGRKRKAEKQVETEEAGVVTTATASVNLKVSPKRGRPAATEVKIPKPRGRPKMVKQPCPSESDIITEEDKSKKKGQEEKQPKKQPKKDEEGQKEEDKPRKEPDKKEGKKEVESKRKNLAKTGVTSTSDSEEEGDDQEGEKKRKGGRNFQTAHRRNMLKGQHEKEAADRKRKQEEQMETEQ", "notes": "Produced in E. coli BL21(DE3); not shown: N-terminal His-tag from the pET-28a(+) vector"}}, "target": "the molecule itself", "experiment": "self-association (dimer); MALDI-TOF peak at 80663 m/z and non-reducing SDS-PAGE", "method": "FIGS. 5A-D are set of graphs showing certain physical characteristics of LEDGF₁₋₃₂₆. A) SEC-HPLC: LEDGF₁₋₃₂₆ was size separated on Agilent Bio-SEC column using 25 mM Tris-HCL buffer containing 1 mM CaCl₂, pH 7.0. LEDGF₁₋₃₂₆ was eluted primarily as single peak at 11.5 min with about 5% higher molecular weight species. B) MALDI-TOF: LEDGF₁₋₃₂₆ has a molecular weight of 40 kDa, and may exist as a dimer. C) DLS: LEDGF₁₋₃₂₆ size was analyzed in 25 mM phosphate buffer, pH 7.0 using Nano ZS. […] D) SDS-PAGE: LEDGF₁₋₃₂₆ was size separated on a 4-15% SDS-PAGE gel under reducing (beta-mercaptoethanol and boiling) and non-reducing (no beta-mercaptoethanol and no boiling) conditions. The non-reducing gel indicated the presence of dimers of LEDGF₁₋₃₂₆.\nThe purity of LEDGF₁₋₃₂₆ protein was determined by size exclusion chromatography (SEC-HPLC) (FIG. 5A). […] The molecular weight of LEDGF₁₋₃₂₆ was confirmed by matrix assisted laser desorption/ionization (MALDI-TOF). The major peak obtained in MALDI-TOF spectrum was at 40314.32 and 80663.19 m/z (mass to charge) ratio (FIG. 5B). […] To investigate the existence of the dimers, SDS-PAGE of LEDGF₁₋₃₂₆ was run under reducing and non-reducing conditions (FIG. 5D). […] Under reducing/denaturing conditions the dimers dissociated into monomers.", "data": [{"protein": "B1", "values": [{"measurement": "binding result", "result": "binds"}]}]}
